{"source": "the supplement of paper PMC11237882", "note": "The other results are listed elsewhere or left out. Values are worked out from sequencing counts and are noisy."}
{"biological_target": "T1, Homer1 EVH1 domain", "T1 chain": "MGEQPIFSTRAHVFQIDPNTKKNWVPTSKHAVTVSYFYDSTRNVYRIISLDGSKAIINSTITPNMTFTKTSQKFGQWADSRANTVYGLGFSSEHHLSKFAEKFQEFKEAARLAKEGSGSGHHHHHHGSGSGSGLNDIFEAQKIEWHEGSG", "experiment": "enrichment score (AUC of log2 frequency ratio across FACS sorting rounds) (log2 AUC); higher = stronger enrichment for Homer1 EVH1 binding"}
{"binder": "SVSRSRSRSRSRSRSRSPPPVSKRESKSRSRSKSPP", "enrichment score": -2.13}
{"binder": "MPQINKEHSQPYHVLQHRRRRRELGPCLRQAICRFA", "enrichment score": 1.02}
{"binder": "HRSPHPSRQAIFCWMSFSAYQTAFICLGLLVQQIIF", "enrichment score": 0.723}
{"binder": "PLFYTLFLIIPCLGLSFLTVLVFYLPSDEGEKLSLS", "enrichment score": 1.65}
{"binder": "FSDVFFKGFKWGFAAFVVAVGAEYYLESLNKDKKHH", "enrichment score": 1.38}
{"binder": "ILIVMVPFLLILLSYIRVLFAILKMPSTTGRQKAFS", "enrichment score": 0.891}
{"binder": "LARRASGPICLLLASLLSLVSAVSACRVFKPWPLSF", "enrichment score": 1.16}
{"binder": "FLFPFLIILTSYTLIWKALKKAYEIQTNKPRNDDIF", "enrichment score": 2.54}
{"binder": "KMLYPQVWREAATQVFFALGLGFGGVIAFSSYNKQD", "enrichment score": -0.299}
{"binder": "YACPEILRGLPYNPFLSDTWSMGVILYTLVVAHLPL", "enrichment score": -0.0714}
{"binder": "INYFENYDPMDSVALNTAYAYATVLTFCTLILAILH", "enrichment score": 0.845}
{"binder": "QVSVRPLQHTQYERFIPSAYPYYASAFSMMLGLFIF", "enrichment score": -0.548}
{"binder": "MWGYLSLMPVFLAVWAISGVWIVFAIAVTNRTVDLS", "enrichment score": 1.86}
{"binder": "MPVMRLFPCFLQLLAGLALLAVPPQQWALSAGNGSS", "enrichment score": 0.159}
{"binder": "HSWQHWLSLPLALLYLSALAANTLILIIIWQNPSLQ", "enrichment score": 1.72}
{"binder": "FSLPLWLIFIICVCYYVAVFPFIGLGKVFFTEKFGF", "enrichment score": -0.354}
{"binder": "LFIFCFIVPLSLICFSYTQLLRALKAVAAQQQESAT", "enrichment score": 1.03}
{"binder": "MDRAARCSGASSLPLLLALALGLVILHCVVADGNST", "enrichment score": 1.3}
{"binder": "KMVGDVTGAQAYASTAKCLNIWALILGILMTILLIV", "enrichment score": 3.25}
{"binder": "APNGFKQHGNPHLYHSQGKGSYKHDRVVPQSRASAQ", "enrichment score": 4.31}
{"binder": "RSAAERWKAFSTCAAHLTVVSLFYGTLFFMYVQPKV", "enrichment score": 2.84}
{"binder": "TVLIEQFGWFIADPLCSLFIAILIFLSVVPLIKDAC", "enrichment score": 0.549}
{"binder": "MRLLILTCLVAVALARPKLPLRYPERLQNPSESSEP", "enrichment score": 1.63}
{"binder": "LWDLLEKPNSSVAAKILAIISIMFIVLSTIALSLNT", "enrichment score": 2.64}
{"binder": "TTTLFRAVNPELFIKPNKPVMAFGLVTLSLCVAYIG", "enrichment score": -2}
{"binder": "QRNGFACILLEDVFQLGQFIFIVTFTTFLLRCVDYN", "enrichment score": 1.01}
{"binder": "VKEVVRRQEAGLGDPSLVALVVFGALTAALVLATVL", "enrichment score": 2.79}
{"binder": "NEEVARFYAAAMSGAGPWAAWPFLLSLALMLLWLPR", "enrichment score": 4.45}
{"binder": "MDQTPPARPEYLVSGIRTPPVRRNSKLATLGRIFKP", "enrichment score": 2.25}
{"binder": "MGGLLLAAFLALVSVPRAQAVWLGRLDPEQLLEPWN", "enrichment score": -1.49}
{"binder": "SKPGPVSWKSLAITFAIGGALLAGMKHVKKEKAEKL", "enrichment score": 0.773}
{"binder": "WHNYPFQPLSSGLYHYYIMELAFYWSLMFSQFTDIK", "enrichment score": -0.984}
{"binder": "FIAMGVVGGVLGAVFNALNYWLTMFRIRYIHRPCLQ", "enrichment score": 1.27}
{"binder": "IAGFLHYLFLACFFWMLVKAVILFLMVRNLKVVNYS", "enrichment score": 1.85}
{"binder": "WNIGLAEGIGIVVFVAGIFLLVVVFVLCRKMISRKK", "enrichment score": -1.19}
{"binder": "AKNPPGDSSLHWAAMALPALFSLIIGFAFGVLYWKN", "enrichment score": 4.33}
{"binder": "MGARKRSQPHTVTAERTQWRKLPGSAKICAFSALSL", "enrichment score": -1.49}
{"binder": "QIQEVREQRVTGVLIASLVGLSIVMGAVLRRIPLAV", "enrichment score": 3.02}
{"binder": "NKYFKSRRPLFTGGLIGGLFTYVLFWTFLYGMVHVY", "enrichment score": -1.34}
{"binder": "LYNGMASTSSWAALYFIALMTFGNYVLFNLLVAILV", "enrichment score": 3.38}
{"binder": "MLFEGLDLVSALATLAACLVSVTLLLAVSQQLWQLR", "enrichment score": 3.69}
{"binder": "FGHFATEASGFSKIFPGITPYILTLGAFFWMPFLRE", "enrichment score": 0.78}
{"binder": "LKLDKGFIWSFMGPVAVIILINLVFYFQVLWILRSK", "enrichment score": 0.828}
{"binder": "MAAPALGLVCGRCPELGLVLLLLLLSLLCGAAGSQE", "enrichment score": 2.33}
